The results in this text go back to paper PMC9590589 (RSC Advances, 2022).

As usually defined, the IC50 is the concentration at which inhibition is half-maximal.

The experiment deals with MDA-MB231 (breast) cells. Put plainly: MTT cytotoxicity assay, MDA-MB231. Type of experiment: cell-based. Conditions: Homo sapiens, MDA-MB-231, 24 h, read-out: Cytotoxic activity, IC50, MDA-MB231. In short, it runs like this: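 Cells grown in DMEM/F12 with 10% FBS, penicillin (100 U mL−1) and streptomycin (100 μg mL−1) at 37 °C, 5% CO2, and passaged twice weekly by trypsinization. Seeded at 5 × 10^3 cells per well for 24 h, then exposed to a range of test compound concentrations for 24 h. MTT (5 mg mL−1 stock) added for 2 h, supernatant removed, formazan dissolved in DMSO, absorbance read at 540 nm, and IC50 calculated. Controls: doxorubicin (positive) and 0.75% DMSO (negative).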
(Tetrazolium assays rely on reduction of a dye to a coloured formazan, in cell work by metabolically active cells.)

As to `COc1cccc2c1C(=O)c1c(O)c3c(c(O)c1C2=O)C[C@@](O)(C(=O)CO)C[C@@H]3O[C@H]1C[C@H](N)[C@H](O)[C@H](C)O1` [Doxorubicin, reference compound], the IC50 turned out to be 3.1 µM.
